# Test results as given in patent US20090137580A1, “Fused Heterocyclic Derivatives and Use Thereof” (Takeda Pharmaceutical Company Limited, priority 2005, published 2009).
# By UniProt entry, the sequences of proteins in these tests, tags left out. Residues count along the entry.
# UniProt P35968, 786-1356 limits assumed: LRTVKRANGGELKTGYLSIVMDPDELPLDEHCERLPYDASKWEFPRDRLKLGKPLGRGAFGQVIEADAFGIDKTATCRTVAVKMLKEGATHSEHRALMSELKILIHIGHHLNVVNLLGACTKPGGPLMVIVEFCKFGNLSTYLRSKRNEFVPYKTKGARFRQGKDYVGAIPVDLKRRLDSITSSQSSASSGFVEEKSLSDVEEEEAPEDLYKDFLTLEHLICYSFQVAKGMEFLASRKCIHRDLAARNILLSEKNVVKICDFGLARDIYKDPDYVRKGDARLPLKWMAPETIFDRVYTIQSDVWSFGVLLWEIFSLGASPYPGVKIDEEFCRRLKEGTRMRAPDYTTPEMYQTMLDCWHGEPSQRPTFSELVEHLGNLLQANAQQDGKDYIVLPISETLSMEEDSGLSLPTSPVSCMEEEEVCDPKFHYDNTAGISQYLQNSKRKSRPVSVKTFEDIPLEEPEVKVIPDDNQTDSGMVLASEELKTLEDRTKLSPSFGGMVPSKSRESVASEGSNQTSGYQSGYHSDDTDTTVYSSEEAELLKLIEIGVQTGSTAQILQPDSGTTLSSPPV
# Counter-ions that a name gives are not always drawn. Some entries share one result that the patent states for a list of compounds.
# Molecular target: T1, VEGF Receptor 2 Kinase (VEGFR2) (Homo sapiens, UniProt P35968)
# T1 construct: made in house; host or cells: SF-21 insect cells, recombinant baculovirus BAC-VEGFR2 (pFASTBAC1)
# Experiment: Determination of VEGF receptor 2 kinase (VEGFR2) inhibitory activity (alpha screen)
# Format: biochemical
# Settings: at 1 μM; VEGFR2 intracellular domain protein, 25 μM ATP buffer
# Method: For cloning of human VEGF receptor 2 (hereinafter to be abbreviated as VEGFR2) gene, PCR was performed using cDNA Libraries Human Placenta (Clontech) as a template. The primer used for PCR was prepared by, based on the information of the base sequence (Genbank Accession AF035121) of VEGFR2 gene, adding a base sequence encoding the flag peptide and a restriction enzyme recognition sequence to the base sequence (2671-4374 of Genbank Accession AF035121) encoding the VEGFR2 intracellular domain, so that a flag tag would be added to the N terminal of the protein. The primer base sequence is shown in the following.
# PCR reaction was carried out using a KOD-plus kit (TOYOBO). The obtained PCR product was electrophoresed on an agarose gel (1%), and a DNA fragment amplified by PCR was recovered from the gel and digested with restriction enzymes Sal I and Sph I. The DNA after the restriction enzyme treatment was electrophoresed on an agarose gel (1%), and the obtained DNA fragment was recovered and ligated to the plasmid pFASTBAC1 (Invitrogen) digested with restriction enzymes Sal I and Sph I to give an expression plasmid pFB-VEGFR2. The base sequence of the inserted fragment was confirmed to have matched with the base sequence (2671-4374 of Genbank Accession AF035121) of the VEGFR2 intracellular domain. […]
smiles,measurement,value
"Cn1ccc2ncnc(Oc3ccc(NC(=O)Nc4cc(C(F)(F)F)ccn4)c(Cl)c3)c21 [Example 60, N-{2-chloro-4-[(5-methyl-5H-pyrrolo[3,2-d]pyrimidin-4-yl)oxy]phenyl}-N′-[4-(trifluoromethyl)pyridin-2-yl]urea Methanesulfonic Acid Salt]",inhibitory rate (kinase inhibitory rate of VEGFR2),not less than 90%
